The median lay at about -60%. This is one part of the list. Measured potencies and affinities stand elsewhere. The source made no clear call on entries shown without one.

Protein sequences, listed by entry. Tags and fused reporters are not part of them.
UniProt P08659, whole entry, looked up: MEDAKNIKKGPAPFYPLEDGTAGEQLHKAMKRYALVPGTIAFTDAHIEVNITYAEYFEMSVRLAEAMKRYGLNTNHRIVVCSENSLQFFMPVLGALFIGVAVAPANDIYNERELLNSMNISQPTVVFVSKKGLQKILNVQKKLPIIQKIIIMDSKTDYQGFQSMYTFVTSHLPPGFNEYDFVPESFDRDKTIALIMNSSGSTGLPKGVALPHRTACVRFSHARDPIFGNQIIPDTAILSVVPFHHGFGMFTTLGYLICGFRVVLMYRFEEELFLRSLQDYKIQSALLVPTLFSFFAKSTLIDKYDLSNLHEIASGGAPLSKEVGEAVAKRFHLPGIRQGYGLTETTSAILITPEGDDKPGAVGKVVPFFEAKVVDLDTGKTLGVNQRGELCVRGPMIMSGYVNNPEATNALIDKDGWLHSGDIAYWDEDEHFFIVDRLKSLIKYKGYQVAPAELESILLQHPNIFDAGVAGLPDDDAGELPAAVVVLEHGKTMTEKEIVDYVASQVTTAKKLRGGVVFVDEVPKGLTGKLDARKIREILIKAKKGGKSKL

For the experiment, the target named is Luciferin 4-monooxygenase (Photinus pyralis) (UniProt P08659). The experiment is described as follows: Luciferase translation or activity inhibitors, H4 neuroglioblastoma cells, luminescence dose response (AID 1990). As to conditions: H4 neuroglioma cells; at 12 µM (top of the series) unless noted.
Regarding `Cc1ccc(/C=C/c2nc3ccccc3c(=O)[nH]2)cc1`, the activity change, negative = inhibition was -61.6%.
With `O=c1c2sc(-c3ccccc3)cc2nc2n1CCC2`, the activity change, negative = inhibition is -48%.
For `COc1ccc(-c2ccc(NC(=O)c3ccco3)cc2)nn1`, the activity change, negative = inhibition is -68.4%.
For `Cc1c(/N=C(\[O-])Nc2ccc(Br)cc2)sn[n+]1C`, the activity change, negative = inhibition is -42.5%.
Regarding `CCOc1ccccc1C(=O)Nc1c[nH]c(=O)[nH]c1=O`, the activity change, negative = inhibition is -53.2%.
With `COc1ccc(Br)cc1/C=C/c1ccc2cccc(O)c2n1` the figure was -10.1%.
As for `Cc1ccc(-c2nc3n(n2)Cc2ccccc2-3)cc1`, the activity change, negative = inhibition was -77.1%.
`Cc1cc(C)c(S(=O)(=O)Nc2ccc3c4c(cccc24)CC3)c(C)c1`: the activity change, negative = inhibition was -65%.
With `Cc1cc(/C=c2/sc3nc4ccccc4n3c2=O)c(C)n1-c1ccccn1`, the activity change, negative = inhibition is -86.8%.
Consider `CC(C)COc1ccc2[nH]c3c(c2c1)CCCC3=O`, for which the activity change, negative = inhibition was -53.8%.
With `C/C(=N\NC(=O)c1c(C)nc2ccccn12)c1ccc(O)cc1O`, the activity change, negative = inhibition was -64.3%.
For the molecule `O=C(CSC(=S)N1CCCCC1)c1ccccc1`, the activity change, negative = inhibition was -56%.
Turning to `c1ccc(-c2cn3c(n2)-c2ccccc2C3)cc1`, the activity change, negative = inhibition is -47.5%.
Consider `c1ccc(-c2cn3nc(-c4ccccc4)sc3n2)cc1`, for which the activity change, negative = inhibition was -71.1%.
Consider `O=C1C=C(Nc2ccc(O)cc2)C(=O)c2ccccc21`, for which the activity change, negative = inhibition is -32%.
For the molecule `Cc1csc(NC(=O)c2cc3c(s2)CCCCC3)n1`, the activity change, negative = inhibition was -77.7%.
For the molecule `Cc1cccc(-c2nc3cc(NC(=O)C4CCCO4)ccc3o2)c1` (configuration not stated), the activity change, negative = inhibition is -50.7%.
As for `COc1ccc(C(=O)O/N=C(\N)c2ccccc2)c(OC)c1`, the activity change, negative = inhibition was -74.5%.
For `COC(=O)c1ccc(C)c(NS(=O)(=O)c2ccc(OC)cc2)c1`, the activity change, negative = inhibition was -72.7%.
With `Cn1c(=N)n(CC(=O)c2ccccc2)c2ccccc21`, the activity change, negative = inhibition was -77.1%.
With `O=C(Nc1cccc(O)c1)c1noc2c1CCCCC2`, the activity change, negative = inhibition was -59.1%.
For `C(=C\c1nnc2c3ccccc3ncn12)/c1ccccc1` the value was 34.8%.
For `Cc1ccc2nc(CSc3nc(C)ccc3C#N)[nH]c2c1`, the activity change, negative = inhibition is 57.2%.
With `Cc1ccc(-n2[nH]c(=O)c(-c3ccccn3)c2C)cc1`, the activity change, negative = inhibition was -78.9%.
In the case of `O=C(c1cc(-c2ccc(Cl)cc2Cl)on1)N1CCOCC1`, the activity change, negative = inhibition is -53.5%.
For `CN(C)c1ccc(-c2nc3ccccc3n2C)cc1`, the activity change, negative = inhibition is -59.5%.
Take `O=C1CCCc2c1[nH]c1ccc(Cl)cc21`: the activity change, negative = inhibition was -73.9%.
As for `Cc1cc(N2CCCCC2)n2ncc(-c3ccccc3)c2n1`, the activity change, negative = inhibition is -20.5%.
With `OCCCNc1cc(-c2ccnc(Nc3cccc(Cl)c3)n2)ccn1`, the activity change, negative = inhibition is -52.2%.
Consider `Cc1ccc(NC2=C/C(=N\S(=O)(=O)c3cccs3)c3ccccc3C2=O)c(C)c1`, for which the activity change, negative = inhibition was -101%.
For `O=C1CN2Cc3c(ccc(Cl)c3Cl)N=C2N1` the value was -62%.
With `Cc1c(OCC(=O)Nc2cccnc2)ccc2c3c(c(=O)oc12)CCC3` the figure was 105%; with `Oc1c(Br)cc(Br)cc1/C=N/Nc1ccc(Cl)nn1`, -84.6%.
Turning to `O=C(Nc1ccc(Br)cc1F)c1ccc2c(c1)OCCO2`, the activity change, negative = inhibition was -59.9%.
For `O=Nc1c(-c2c(O)[nH]c3cc(Br)ccc23)[nH]c2ccccc12` the value was -56%.
Take `O=C(/C=C\Nc1ccccn1)c1ccccc1`: the activity change, negative = inhibition is -31.2%.
For the molecule `O=C1/C(=C/Nc2ccc3c(c2)OCO3)CCc2ccccc21`, the activity change, negative = inhibition was -59.5%.
As for `Cc1nn(C)c(C)c1/C=C(/C(=O)C(C)(C)C)n1cncn1`, the activity change, negative = inhibition amounted to 64%.
In the case of `Cc1ccc2nc(-c3ccc(NC(=O)CCS(=O)(=O)c4ccccc4)cc3)sc2c1`, the activity change, negative = inhibition is -64.6%.
In the case of `Cc1nc(SCc2cccc(C(=O)O)c2)nc2c1CCCC2`, the activity change, negative = inhibition was -48.8%.
With `O=C(c1cc(-c2ccc3c(c2)OCO3)on1)N1CCCCC1` the figure was -66%; with `CCOc1ccc(S(=O)(=O)Nc2cc(OC)ccc2OC)cc1`, -80.1%.
Take `CN(C)c1ccc(N=Nc2ccc(C(=O)O)cc2)cc1`: the activity change, negative = inhibition was -1%.
As to `O=C(O)c1ccc2cc(-c3ccccc3)[nH]c2c1`, the activity change, negative = inhibition was -11.3%.
For the molecule `O=C(Nc1ccc(NC(=O)c2cc3ccccc3o2)cc1)c1ccc2c(c1)OCCO2`, the activity change, negative = inhibition is -63%.
Consider `O=C(/C=C/c1ccco1)Oc1cc(Br)cc(/C=N/NC(=O)c2ccccc2O)c1`, for which the activity change, negative = inhibition was -78.6%.
`Clc1ccc(/C=C/c2nc3ccccc3[nH]2)cc1`: the activity change, negative = inhibition was -46.6%.
With `CC(=O)c1ccc(N=Nc2ccc(N(C)C)cc2)cc1` the figure was -65.6%; with `Cc1cc(C(=O)Cn2nnc3ccccc3c2=O)c(C)n1-c1ccccc1F`, -30.2%.
Consider `Cc1ccc(NC(=O)c2ccc3c(c2)OCCO3)cc1C`, for which the activity change, negative = inhibition is -72.9%.
In the case of `Nc1nc(-c2ccc(NC(=O)c3ccco3)cc2)cs1`, the activity change, negative = inhibition is -53.8%.
For the molecule `COc1ccc(OCc2cccc(C(=O)Nc3cc(C)on3)c2)cc1`, the activity change, negative = inhibition is -57.7%.
For the molecule `C(=N\Nc1nc2ccccc2[nH]1)/c1ccccn1`, the activity change, negative = inhibition is -97.7%.
Consider `COC(=O)Nc1nc2ccc(C(=O)c3cccs3)cc2[nH]1`, for which the activity change, negative = inhibition is -40.3%.
For the molecule `Cc1cnc(NC(=O)COc2ccccc2Cl)s1`, the activity change, negative = inhibition is -82.3%.
Take `N#Cc1cc2cc3c(cc2nc1SCC(=O)N1CCOCC1)OCCO3`: the activity change, negative = inhibition was -72.7%.
With `COc1ccc2c(C)nc(Nc3nc(C)c(C)c(=O)[nH]3)nc2c1`, the activity change, negative = inhibition came out at 161% [at 6 µM].
With `Nc1nc(Cl)nc2c1ncn2[C@H]1C[C@H](O)[C@@H](CO)O1` the figure was -93.5%; with `Nc1cccc2nc3ccccc3cc12`, -95.9%; with `O=C(/C=C\Nc1cccc(F)c1)c1ccc2c(c1)OCO2`, -49.5%.
For `Cc1ccc(N=Nc2cc(C)ccc2N)cc1` the value was 168% [at 6 µM].
With `O=C(/C=C/Nc1ccc(Br)cc1F)c1ccccc1` the figure was -69.8%; with `Cc1cc(C(=O)Nc2ccc3c(c2)OCCO3)ccc1[N+](=O)[O-]`, -55.7%.
`O=C(Nc1ccc(-c2nc3ccccc3s2)cc1)C1=COCCO1`: the activity change, negative = inhibition was -96.2%.
Take `CCN1/C(=C/c2ccc3cc(C)ccc3[n+]2CC)Sc2ccccc21`: the activity change, negative = inhibition is -60.8% [at 3 µM].
Consider `COc1ccc(-c2cc3c(nn2)-c2ccccc2C3=O)cc1`, for which the activity change, negative = inhibition is -73.5%.
Turning to `Cc1ccc2c(COC(=O)C3=COCCO3)cc(=O)oc2c1`, the activity change, negative = inhibition is -49.3%.
For `O=C1NC(=O)/C(=C\c2ccc(OCc3cccc(C(=O)O)c3)c(Cl)c2)N1` the value was 1%; for `CN(C)c1ccc(/C=C/c2nc3ccccc3c(=O)[nH]2)cc1`, -56%; for `CCc1ccc(CNC(=O)Cc2ccc(NC(=O)C3=C(C)OCCS3)cc2)cc1`, -37.5%.
On to `Fc1ccccc1/C=N/Nc1nc(-c2ccccn2)nc2ccccc12`, for which the activity change, negative = inhibition is -75%.
In the case of `O=C1c2ccccc2C(=O)C1c1ccc2ccccc2n1`, the activity change, negative = inhibition was -68.6%.
For `c1ccc2nc(-c3nc4ccccc4[nH]3)ccc2c1` the value was -69.5%.
As to `Cc1cc(C(=O)Nc2ccc(Cl)cc2)c(C)n1-c1ccccc1`, the activity change, negative = inhibition is -81.5%.
Turning to `COc1cc(NC(=O)N2CCNC2=O)cc(C(=O)Nc2cccc(C(F)(F)F)c2)c1`, the activity change, negative = inhibition was -74.7%.
`Cc1nc(C)c(C(=O)Nc2ncc([N+](=O)[O-])s2)o1`: the activity change, negative = inhibition was -55.8%.
As to `COc1ccc(N=CC2=C(O)c3ccccc3C2=O)c(OC)c1`, the activity change, negative = inhibition amounted to 250% [at 6 µM].
As to `Cc1ccc2nc(-c3ccc(NC(=O)COC(=O)c4ccc([N+](=O)[O-])o4)cc3)sc2c1`, the activity change, negative = inhibition is -18.5%.
As for `O=C(Nc1ccc(Oc2c(F)c(F)c(F)c(F)c2F)cc1)OC1CCN2Cc3ccccc3N=C12` (configuration not stated), the activity change, negative = inhibition is -98%.
As to `O=[N+]([O-])c1cc(/C=N/n2cnnc2)ccc1N1CCCC1`, the activity change, negative = inhibition was -62%.
In the case of `Cc1cn(-c2cc(C(=O)Nc3ccc(C)c(NC(=O)C(=O)c4c[nH]c5ccccc45)c3)cc(C(F)(F)F)c2)cn1`, the activity change, negative = inhibition was -51.1%.
Take `Cc1ccc(NC(=O)c2ccc3c(c2)OCCO3)nc1`: the activity change, negative = inhibition was -57%.

Values taken from PubChem BioAssay AID1990 (Broad Institute, 2009).
